In the supplement of paper PMC4604168 (melanoma cell lines):
The other results are listed elsewhere or left out. Many values rest on one well or one pass, so single values are uncertain.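 The apoptosis fraction was the count of cleaved-PARP antibody-stained nuclei relative to all DNA-stained nuclei, imaged in 1,536-well plates. Screening doses were set so most cells survived, and baseline and induced cleaved-PARP levels vary greatly across cell lines.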

Experiments:
Experiment in all cases: cleaved PARP positive nuclei fraction relative to DMSO control; melanoma cells; higher = more apoptosis
Settings in all cases: library dose: low library concentration; 72 h
[1] = test system: MZ2-MEL
[2] = test system: MeWo
[3] = test system: RPMI7951
[4] = test system: RVH-421
[5] = test system: SkMel28
[6] = test system: SkMel30
[7] = test system: SkMel5
[8] = test system: UACC257
[9] = test system: UACC62

Structure (SMILES)	cleaved PARP positive nuclei fraction [1] [%]	cleaved PARP positive nuclei fraction [2] [%]	cleaved PARP positive nuclei fraction [3] [%]	cleaved PARP positive nuclei fraction [4] [%]	cleaved PARP positive nuclei fraction [5] [%]	cleaved PARP positive nuclei fraction [6] [%]	cleaved PARP positive nuclei fraction [7] [%]	cleaved PARP positive nuclei fraction [8] [%]	cleaved PARP positive nuclei fraction [9] [%]
C[C@]1(c2nc3c(C(N)=O)cccc3[nH]2)CCCN1 [Veliparib] + CCc1ccc(CCOc2ccc(CC3SC(=O)NC3=O)cc2)nc1 [pioglitazone] (first compound 1.4 µM, partner dose 2 µM)	58.6	30.6	69.7	24.8	142	18.7	29	169	29.4
Cc1nc(Nc2ncc(C(=O)Nc3c(C)cccc3Cl)s2)cc(N2CCN(CCO)CC2)n1 [dasatanib] + O=C(O)C(=O)Nc1sc2c(c1C(=O)O)CCNC2 [TCS401] (first compound 0.004 µM, partner dose 1.66667 µM)	59.2	116	122	55.6	120	6.97	72.2	191	89.1
Cc1ccc(NC(=O)c2cccc(N(C)C)c2)cc1NC(=O)c1ccc(O)cc1 + O=C(O)C(=O)Nc1sc2c(c1C(=O)O)CCNC2 [TCS401] (first compound 2 µM, partner dose 1.66667 µM)	116	151	92.3	101	55	74.6	62	166	39.9
CC1(C)NC(=O)N(c2ccc([N+](=O)[O-])c(C(F)(F)F)c2)C1=O [nilutamide] + O=S(=O)(c1ccccc1)N(CC(F)(F)F)c1ccc(C(O)(C(F)(F)F)C(F)(F)F)cc1 [T0901317] (first compound 1 µM, partner dose 1.4 µM)	91.6	106	70.3	114	148	30.8	32	228	83.7
C[C@]1(c2nc3c(C(N)=O)cccc3[nH]2)CCCN1 [Veliparib] + N#Cc1c(O)c2c(-c3ccc(-c4ccccc4O)cc3)csc2[nH]c1=O [A769662] (first compound 1.4 µM, partner dose 2 µM)	120	28.3	55.8	29	91.3	67.6	115	69.8	89.5
C[C@]1(c2nc3c(C(N)=O)cccc3[nH]2)CCCN1 [Veliparib] + Cc1cc([N+](=O)[O-])ccc1NS(=O)(=O)c1cc(Cl)ccc1Cl [FH535] (first compound 1.4 µM, partner dose 1 µM)	42.3	124	42.7	132	109	120	44.7	97.8	283
COCC[n+]1c2c(n(Cc3cnccn3)c1C)C(=O)c1ccccc1C2=O + c1cc(-c2cnn3cc(-c4ccc(OCCN5CCCCC5)cc4)cnc23)ccn1 [Dorsomorphin] (first compound 0.0004 µM, partner dose 0.4 µM)	111	71.6	67.5	73.1	177	34.3	277	73.1	98.6
C=CCn1c(=O)c2cnc(Nc3ccc(N4CCN(C)CC4)cc3)nc2n1-c1cccc(C(C)(C)O)n1 + COc1ccc(-c2ccc3c(N4CCOCC4)nc(N4C[C@@H](C)O[C@@H](C)C4)nc3n2)cc1CO [KU0063794] (first compound 0.02 µM, partner dose 0.02 µM)	69.5	112	81.8	156	145	37.9	74.9	112	42.9
CO[C@@H]1[C@H](N(C)C(=O)c2ccccc2)C[C@H]2O[C@]1(C)n1c3ccccc3c3c4c(c5c6ccccc6n2c5c31)C(=O)NC4 [Midostaurin] + Oc1cc(-c2nc(-c3ccccc3)[nH]c2-c2ccncc2)ccc1Cl [L779450] (first compound 0.08 µM, partner dose 0.2 µM)	79.6	60.4	94.4	131	224	46.2	30.7	104	123
CC1(C)NC(=O)N(c2ccc([N+](=O)[O-])c(C(F)(F)F)c2)C1=O [nilutamide] + O=C(Nc1ccccc1)c1cc([N+](=O)[O-])ccc1Cl [GW9662] (first compound 1 µM, partner dose 2 µM)	123	107	156	40.2	181	144	60.2	111	215
NC(=O)Nc1cc(-c2cccc(F)c2)sc1C(=O)N[C@H]1CCCNC1 + Cc1cc([N+](=O)[O-])ccc1NS(=O)(=O)c1cc(Cl)ccc1Cl [FH535] (first compound 0.02 µM, partner dose 1 µM)	92.8	119	88.2	47.8	59.3	54.5	119	41.5	136
C[C@@H]1CCN(C(=O)CC#N)C[C@@H]1N(C)c1ncnc2[nH]ccc12 + COc1cc2ncnc(Nc3ccc(Oc4ccccc4)cc3)c2cc1OC [SrcI1] (first compound 1 µM, partner dose 2 µM)	93.1	49.2	168	100	192	24.3	119	75.1	37.7
C#Cc1cccc(Nc2ncnc3cc(OCCOC)c(OCCOC)cc23)c1 [erlotinib] + N#Cc1c(O)c2c(-c3ccc(-c4ccccc4O)cc3)csc2[nH]c1=O [A769662] (first compound 0.8 µM, partner dose 2 µM)	331	56.3	75.9	52.7	137	208	26.9	106	134
CC(C)(C)c1cnc(CSc2cnc(NC(=O)C3CCNCC3)s2)o1 + O=C(O)C(=O)Nc1sc2c(c1C(=O)O)CCNC2 [TCS401] (first compound 0.01 µM, partner dose 1.66667 µM)	101	53.5	73.3	110	299	47.2	28.3	275	392
NC(=O)Nc1cc(-c2cccc(F)c2)sc1C(=O)N[C@H]1CCCNC1 + COc1ccc(-c2ccc3c(N4CCOCC4)nc(N4C[C@@H](C)O[C@@H](C)C4)nc3n2)cc1CO [KU0063794] (first compound 0.02 µM, partner dose 0.02 µM)	91.5	73.1	199	45.5	110	108	104	149	171
Cc1ccc(NC(=O)c2cccc(N(C)C)c2)cc1NC(=O)c1ccc(O)cc1 + N#Cc1c(O)c2c(-c3ccc(-c4ccccc4O)cc3)csc2[nH]c1=O [A769662] (first compound 2 µM, partner dose 2 µM)	124	120	287	51.6	69.6	33.1	63.2	58.9	122
C[C@]1(c2nc3c(C(N)=O)cccc3[nH]2)CCCN1 [Veliparib] + O=C(Nc1ccccc1)c1cc([N+](=O)[O-])ccc1Cl [GW9662] (first compound 1.4 µM, partner dose 2 µM)	152	97.2	82.5	96.2	233	18.7	89.7	131	51.9
C[C@@H]1CCN(C(=O)CC#N)C[C@@H]1N(C)c1ncnc2[nH]ccc12 + O=S(=O)(c1ccccc1)N(CC(F)(F)F)c1ccc(C(O)(C(F)(F)F)C(F)(F)F)cc1 [T0901317] (first compound 1 µM, partner dose 1.4 µM)	58.7	29.3	81	88.1	128	28.9	32.5	88.6	79.8
Cc1cc(N2CCOCC2)cc2[nH]c(-c3c(NC[C@@H](O)c4cccc(Cl)c4)cc[nH]c3=O)nc12 + COc1cc2ncnc(Nc3ccc(Oc4ccccc4)cc3)c2cc1OC [SrcI1] (first compound 0.2 µM, partner dose 2 µM)	232	66.2	107	32.2	135	31.3	127	157	105
C[C@@H]1CCN(C(=O)CC#N)C[C@@H]1N(C)c1ncnc2[nH]ccc12 + COc1ccc(-c2ccc3c(N4CCOCC4)nc(N4C[C@@H](C)O[C@@H](C)C4)nc3n2)cc1CO [KU0063794] (first compound 1 µM, partner dose 0.02 µM)	96.7	61.1	90	62.8	161	85.6	29.9	206	123
Cc1cc(N2CCOCC2)cc2[nH]c(-c3c(NC[C@@H](O)c4cccc(Cl)c4)cc[nH]c3=O)nc12 + N#Cc1c(O)c2c(-c3ccc(-c4ccccc4O)cc3)csc2[nH]c1=O [A769662] (first compound 0.2 µM, partner dose 2 µM)	111	159	93.7	58.9	153	23.4	205	89.5	224
O=C(CCCCCCC(=O)Nc1ccccc1)NO [vorinostat] + Oc1cc(-c2nc(-c3ccccc3)[nH]c2-c2ccncc2)ccc1Cl [L779450] (first compound 0.08 µM, partner dose 0.2 µM)	250	101	85	92.4	203	61.6	122	128	52.8
COc1cc(Nc2ncc(F)c(Nc3ccc4c(n3)NC(=O)C(C)(C)O4)n2)cc(OC)c1OC [Tamatinib] + O=C(O)C(=O)Nc1sc2c(c1C(=O)O)CCNC2 [TCS401] (first compound 0.4 µM, partner dose 1.66667 µM)	82.5	181	93.9	129	199	47.1	68	269	77.2
CC(C)(C)c1cnc(CSc2cnc(NC(=O)C3CCNCC3)s2)o1 + O=C1NC(=O)/C(=C/c2ccc(-c3ccc(F)cc3O)o2)S1 [AS252424] (first compound 0.01 µM, partner dose 1 µM)	85.8	71.9	80.1	45.8	83.7	24	53	109	73.9

Just cleaved PARP positive nuclei fraction [9] [%], for some of the entries so far:
Structure (SMILES)	cleaved PARP positive nuclei fraction [9] [%]
CO[C@@H]1[C@H](N(C)C(=O)c2ccccc2)C[C@H]2O[C@]1(C)n1c3ccccc3c3c4c(c5c6ccccc6n2c5c31)C(=O)NC4 [Midostaurin] + Oc1cc(-c2nc(-c3ccccc3)[nH]c2-c2ccncc2)ccc1Cl [L779450] (first compound 0.08 µM, partner dose 0.2 µM)	123
C[C@@H]1CCN(C(=O)CC#N)C[C@@H]1N(C)c1ncnc2[nH]ccc12 + COc1ccc(-c2ccc3c(N4CCOCC4)nc(N4C[C@@H](C)O[C@@H](C)C4)nc3n2)cc1CO [KU0063794] (first compound 1 µM, partner dose 0.02 µM)	123
